Data as given in patent publication EP4667476A1, “NOVEL MITOCHONDRIA-TARGETING COMPOUNDS” (THE CATHOLIC UNIVERSITY OF KOREA INDUSTRY-ACADEMIC …, priority 2023, dated 2024).
For at least one compound, name, drawing or mass did not settle the structure.

Legend:
Th1 (CD4+, IFN-r+) = assay: Th1 cells in spleen of DSS-induced mice by flow cytometer; type: in vivo, C57BL/6 mice; conditions: compared to control group (vehicle) (FIG. 10)
Th2 (CD4+, IL-4+) = assay: Th2 cells in spleen of DSS-induced mice by flow cytometer; type: in vivo, C57BL/6 mice; conditions: compared to control group (vehicle) (FIG. 10)
Th17 (CD4+, IL-17+) = assay: Th17 cells in spleen of DSS-induced mice by flow cytometer; type: in vivo, C57BL/6 mice; conditions: compared to control group (vehicle) (FIG. 10)
AGS cell line = assay: CCK8 assay, gastric cancer cell proliferation; type: cell-based
[1] = system: DSS-induced mice as an inflammatory bowel disease model; assay: DSS-induced colitis model, colon length; type: in vivo, C57BL/6 mice; conditions: 3% DSS orally 5 days; 10 mg/kg orally daily; compared to control group (vehicle) (FIG. 9)
PD-L1 = PD-L1 expression in gastric cancer cells by flow cytometer; type: cell-based; conditions: AGS cell line, each concentration, flow cytometer (FIG. 7)
Method: After treating an AGS cell line, a gastric cancer cell line, with JH-001 for each concentration, the expression of PD-L1, an immunocompromised marker, was confirmed using a flow cytometer. […] In addition, metformin, known as a mitochondria-targeting drug, was treated at a concentration 50 times higher than that of JH-001 and the expression level of PD-L1 was confirmed. As a result, it was confirmed that JH-001 according to the present disclosure inhibited PD-L1 expression about 2 times higher than metformin treatment, even though JH-001 was treated at a much lower concentration (FIG. 8).

SMILES: CN(CCCNC(=O)CCCCC[P+](c1ccccc1)(c1ccccc1)c1ccccc1)C(=N)NC(=N)N [JH-001, (6-((3-(3-carbamimidoyl-1-methylguanidino)propyl)amino)-6-oxohexyl)triphenylphosphonium]
- expression level of Th1 (Th1 (CD4+, IFN-r+)): decreased
- expression level of Th2 (Th2 (CD4+, IL-4+)): decreased
- expression level of Th17 (Th17 (CD4+, IL-17+)): decreased
- proliferation of gastric cancer cells (AGS cell line; AGS cell line, each concentration, CCK8 after 48 hours (FIG. 5)): inhibited in a concentration-dependent manner
- cell death effect compared to metformin (AGS cell line; AGS, JH-001 and metformin each at 1 mM, by treatment time (FIG. 6)): higher cell death effect depending on the treatment time compared to metformin
- colon length [1]: recovered
- expression of PD-L1 in gastric cancer cells (PD-L1): inhibited in a concentration-dependent manner
